Laboratory results: patent publication US6538013B2, “Acyclic and cyclic guanidine-and acetamidine derivatives, their preparation and their use as pesticides, esp. as parasiticides” (Novartis Animal Health US, Inc., priority 1998, dated 2003)
Some of these results come from one statement about several compounds together. For at least one compound, name, drawing or mass did not settle the structure.

Tested on: cat fleas [Ctenocephalides felis (Bouche)]
Test: Control of adult fleas in cats by means of pour-on application
Format: in vivo
Details: 20 mg/kg body weight
Description: Test protocol for each test compound: in order to determine the effectiveness of the test compounds against fully grown fleas, four groups each of two cats are used. Each cat is infested with 100 cat fleas [Ctenocephalides felis (Bouche)] and treated with 20 mg of active ingredient per kg body weight. The treatment is effected by applying the formulation to a locally limited area on the back of the cat's neck. While one group is infested with fleas but is treated only with a placebo, that is to say a formulation without active ingredient, and serves as control, another group is treated with nitenpyram as comparison substance; the two remaining groups receive the test compounds. Evaluation is made in each case by combing surviving fleas out of the animal's coat and comparing the number counted with the number of fleas in the control group and in the group treated with nitenpyram. […] On day +1, each animal is combed and the number of surviving fleas is determined; the surviving fleas are then replaced on the same cat and after 24 hours the combing and evaluation are repeated. […] The described procedure is then repeated on days +3, +7, +9, +14, +21, +28, +35, +42, +49, +56 and +63 and in this way the effectiveness and duration of action are determined. The effectiveness is determined in accordance with the following formula: [formula]

## CCCCC(=O)OCOC(=O)N(C)C(=C[N+](=O)[O-])N(CC)Cc1ccc(Cl)nc1 [Compound 1.008]
  period of full action (100% effectiveness): at least 7 weeks
